Test results as given in PMC12465037, “Defective targeting of PNPLA1 to lipid droplets causes ichthyosis in ABHD5-syndromic epidermal differentiation disorder” (Journal of Lipid Research, 2025).
Residue numbers refer to the chain shown, from its start. Numbers in names are those of the source. No constants are given. Whether binding was seen depends on the method and setting. For some of these results: In cells and extracts the contact can be indirect. Some results given as binding are weak or reduced against the parent protein; the word gives no strength. Sequences can lack the tags named with a protein.

B1: Xpress-tagged wild-type human ABHD5 (α/β-hydrolase domain-containing 5) (protein, UniProt Q8WTS1 1-349)
chain: MAAEEEEVDSADTGERSGWLTGWLPTWCPTSISHLKEAEEKMLKCVPCTYKKEPVRISNGNKIWTLKFSHNISNKTPLVLLHGFGGGLGLWALNFGDLCTNRPVYAFDLLGFGRSSRPRFDSDAEEVENQFVESIEEWRCALGLDKMILLGHNLGGFLAAAYSLKYPSRVNHLILVEPWGFPERPDLADQDRPIPVWIRALGAALTPFNPLAGLRIAGPFGLSLVQRLRPDFKRKYSSMFEDDTVTEYIYHCNVQTPSGETAFKNMTIPYGWAKRPMLQRIGKMHPDIPVSVIFGARSCIDGNSGTSIQSLRPHSYVKTIAILGAGHYVYADQPEEFNQKVKEICDTVD
B2: Xpress-tagged human ABHD5 p.H251P (protein, UniProt Q8WTS1 1-349)
chain: B1 chain with H251P
B3: Xpress-tagged human ABHD5 p.E260K (natural protein, UniProt Q8WTS1 1-349, looked up)
chain: B1 chain with E260K
notes: human ABHD5, full-length open reading frame of NM_016006.6 with the patient mutation p.E260K; Disease-associated (ABHD5-sEDD) missense variant made by site-directed mutagenesis; source: HEK293T, transfected (pcDNA4/HisMaxC), in lysate
B4: Xpress-tagged human ABHD5 p.G271R (natural protein, UniProt Q8WTS1 1-349, looked up)
chain: B1 chain with G271R
notes: human ABHD5, full-length open reading frame of NM_016006.6 with the patient mutation p.G271R; Disease-associated (ABHD5-sEDD) missense variant made by site-directed mutagenesis; source: HEK293T, transfected (pcDNA4/HisMaxC), in lysate
B5: Xpress-tagged human ABHD5 p.H82R (natural protein, UniProt Q8WTS1 1-349, looked up)
chain: B1 chain with H82R
notes: human ABHD5, full-length open reading frame of NM_016006.6 with the patient mutation p.H82R; Disease-associated (ABHD5-sEDD) missense variant made by site-directed mutagenesis; source: HEK293T, transfected (pcDNA4/HisMaxC), in lysate
B6: Xpress-tagged human ABHD5 p.Q130P (natural protein, UniProt Q8WTS1 1-349, looked up)
chain: B1 chain with Q130P
notes: human ABHD5, full-length open reading frame of NM_016006.6 with the patient mutation p.Q130P; Disease-associated (ABHD5-sEDD) missense variant made by site-directed mutagenesis; source: HEK293T, transfected (pcDNA4/HisMaxC), in lysate
B7: Xpress-tagged human ABHD5 p.R297N (natural protein, UniProt Q8WTS1 1-349, looked up)
chain: B1 chain with R297N
notes: human ABHD5, full-length open reading frame of NM_016006.6 with the patient mutation p.R297N; Disease-associated (ABHD5-sEDD) missense variant made by site-directed mutagenesis; source: HEK293T, transfected (pcDNA4/HisMaxC), in lysate
B8: Xpress-tagged human ABHD5 p.S115G (natural protein, UniProt Q8WTS1 1-349, looked up)
chain: B1 chain with S115G
notes: human ABHD5, full-length open reading frame of NM_016006.6 with the patient mutation p.S115G; Disease-associated (ABHD5-sEDD) missense variant made by site-directed mutagenesis; source: HEK293T, transfected (pcDNA4/HisMaxC), in lysate

target: T1, FLAG-tagged human PNPLA1 (patatin-like phospholipase domain-containing 1), from pFLAG-CMV-hsPNPLA1 (human) (UniProt Q8N8W4); assay: co-IP; HEK293T co-transfected with FLAG-PNPLA1 and Xpress-tagged ABHD5 variants; lysis in 50 mM Tris/HCl pH 7.4, 150 mM NaCl, 1 mM EDTA, 1% NP-40; 1 mg lysate with anti-FLAG M2-agarose overnight at 4°C; eight washes; immunoblot
T1 sequence: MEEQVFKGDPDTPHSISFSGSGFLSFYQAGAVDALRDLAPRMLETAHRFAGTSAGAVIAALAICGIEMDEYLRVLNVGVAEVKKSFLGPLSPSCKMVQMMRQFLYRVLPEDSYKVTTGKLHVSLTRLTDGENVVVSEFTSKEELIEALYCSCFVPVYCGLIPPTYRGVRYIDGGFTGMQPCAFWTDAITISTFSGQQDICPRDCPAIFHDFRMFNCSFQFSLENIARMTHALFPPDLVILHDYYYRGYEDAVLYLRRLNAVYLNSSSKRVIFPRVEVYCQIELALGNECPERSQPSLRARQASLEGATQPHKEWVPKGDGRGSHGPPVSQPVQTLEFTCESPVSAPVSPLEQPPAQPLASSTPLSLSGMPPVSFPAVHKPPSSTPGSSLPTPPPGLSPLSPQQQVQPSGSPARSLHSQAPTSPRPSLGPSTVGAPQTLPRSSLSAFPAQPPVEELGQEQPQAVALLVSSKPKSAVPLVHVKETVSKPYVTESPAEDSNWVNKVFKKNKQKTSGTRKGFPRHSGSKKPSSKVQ

Binder	binding
B1	binds
B2	binds
B3	binds
B4	binds
B5	binds
B6	binds
B7	binds
B8	binds

target: T2, human PLIN2 (perilipin 2), partially purified (pcDNA4/HisMaxC-mut-hsPLIN2) (human) (UniProt Q99541); assay: ELISA; solid-phase interaction assay: 1.8 μg/well of purified 3xFLAG-PNPLA1, PLIN2 or PLIN3 coated on MaxiSorp plates (50 mM Tris-HCl pH 8.0, 200 mM NaCl); 40 μg HEK293T lysate with Xpress-tagged ABHD5 variants in TBS with 2% BSA and 0.05% Tween 20, overnight at 4°C; anti-Xpress and HRP secondary antibody, TMB, absorbance at 620 nm, background subtracted and normalised to expression; only the target purified
T2 sequence: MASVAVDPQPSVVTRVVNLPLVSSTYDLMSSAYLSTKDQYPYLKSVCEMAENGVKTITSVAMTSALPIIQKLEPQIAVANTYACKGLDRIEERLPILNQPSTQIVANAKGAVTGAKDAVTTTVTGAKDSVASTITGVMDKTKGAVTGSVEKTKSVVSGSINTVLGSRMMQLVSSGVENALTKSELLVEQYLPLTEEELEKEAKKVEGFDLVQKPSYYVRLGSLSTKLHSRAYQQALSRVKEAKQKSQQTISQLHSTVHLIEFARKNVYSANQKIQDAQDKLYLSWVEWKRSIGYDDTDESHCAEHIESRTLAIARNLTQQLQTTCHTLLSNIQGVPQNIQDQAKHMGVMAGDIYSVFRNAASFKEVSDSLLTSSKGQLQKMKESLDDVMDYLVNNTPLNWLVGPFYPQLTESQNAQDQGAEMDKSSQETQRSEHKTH

Binder	binding
B1	binds
B2	binds
B3	binds
B5	binds
B6	binds
B8	binds

target: T3, 3xFLAG-tagged full-length human PNPLA1, partially purified (pcDNA4/HisMaxC-mut-3xFLAG-hsPNPLA1) (human) (UniProt Q8N8W4); assay: as above
T3 sequence: T1 sequence

Binder	binding
B1	binds
B2	binds

target: T4, human PLIN3 (perilipin 3), partially purified (pcDNA4/HisMaxC-mut-hsPLIN3) (human) (UniProt O60664); assay: as above
T4 sequence: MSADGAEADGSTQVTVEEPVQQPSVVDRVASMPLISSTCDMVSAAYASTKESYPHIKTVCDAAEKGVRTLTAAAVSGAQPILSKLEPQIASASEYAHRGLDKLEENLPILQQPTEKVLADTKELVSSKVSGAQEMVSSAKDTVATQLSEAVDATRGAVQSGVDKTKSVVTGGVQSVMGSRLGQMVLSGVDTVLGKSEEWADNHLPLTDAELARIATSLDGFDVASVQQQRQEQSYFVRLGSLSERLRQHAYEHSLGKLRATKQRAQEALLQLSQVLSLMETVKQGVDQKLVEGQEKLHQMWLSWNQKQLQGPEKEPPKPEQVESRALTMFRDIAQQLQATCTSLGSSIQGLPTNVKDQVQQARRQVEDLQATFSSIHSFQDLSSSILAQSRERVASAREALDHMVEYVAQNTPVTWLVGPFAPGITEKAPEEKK

Binder	binding
B1	binds
B2	binds
B3	binds
B5	binds
B6	binds
B8	binds
